Experimental data from the supplement of paper PMC6411743.
± gives the standard deviation of the averaged measurements. The entries are a selection whose mix differs from that of the whole data set. Most values lie at the level of the controls, where differences are scatter.

Protein sequences, listed by entry. Tags and fused reporters are not part of them. Lines headed by an entry give the natural chain unless they say otherwise; changes in a name come on top.
UniProt Q8WXX5: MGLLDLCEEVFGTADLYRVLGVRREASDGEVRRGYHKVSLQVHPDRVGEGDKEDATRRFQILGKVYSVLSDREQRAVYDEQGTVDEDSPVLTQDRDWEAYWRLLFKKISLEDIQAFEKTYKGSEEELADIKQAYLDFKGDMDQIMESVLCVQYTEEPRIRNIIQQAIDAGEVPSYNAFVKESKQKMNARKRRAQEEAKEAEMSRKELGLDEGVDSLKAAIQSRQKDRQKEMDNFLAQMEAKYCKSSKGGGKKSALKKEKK
UniProt Q8WVJ2: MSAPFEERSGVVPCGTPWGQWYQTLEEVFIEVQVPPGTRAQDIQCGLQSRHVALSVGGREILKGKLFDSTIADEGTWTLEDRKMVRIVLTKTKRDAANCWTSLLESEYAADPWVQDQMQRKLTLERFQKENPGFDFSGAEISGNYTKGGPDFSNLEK
UniProt Q8TCD5: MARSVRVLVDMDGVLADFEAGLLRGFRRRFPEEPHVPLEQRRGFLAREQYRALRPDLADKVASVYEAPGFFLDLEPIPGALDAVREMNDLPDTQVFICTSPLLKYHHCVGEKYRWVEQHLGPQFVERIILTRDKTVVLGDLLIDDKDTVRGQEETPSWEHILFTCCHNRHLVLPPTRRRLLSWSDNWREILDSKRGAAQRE
UniProt Q96AB6: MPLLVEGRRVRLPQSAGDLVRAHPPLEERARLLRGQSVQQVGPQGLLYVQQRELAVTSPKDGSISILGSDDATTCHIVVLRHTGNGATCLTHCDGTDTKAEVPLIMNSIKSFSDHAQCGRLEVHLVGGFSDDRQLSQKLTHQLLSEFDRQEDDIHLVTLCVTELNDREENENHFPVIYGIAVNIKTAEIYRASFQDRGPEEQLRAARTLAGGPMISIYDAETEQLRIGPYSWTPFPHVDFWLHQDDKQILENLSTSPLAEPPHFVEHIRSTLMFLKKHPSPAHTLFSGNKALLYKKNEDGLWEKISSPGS
UniProt Q969Z0: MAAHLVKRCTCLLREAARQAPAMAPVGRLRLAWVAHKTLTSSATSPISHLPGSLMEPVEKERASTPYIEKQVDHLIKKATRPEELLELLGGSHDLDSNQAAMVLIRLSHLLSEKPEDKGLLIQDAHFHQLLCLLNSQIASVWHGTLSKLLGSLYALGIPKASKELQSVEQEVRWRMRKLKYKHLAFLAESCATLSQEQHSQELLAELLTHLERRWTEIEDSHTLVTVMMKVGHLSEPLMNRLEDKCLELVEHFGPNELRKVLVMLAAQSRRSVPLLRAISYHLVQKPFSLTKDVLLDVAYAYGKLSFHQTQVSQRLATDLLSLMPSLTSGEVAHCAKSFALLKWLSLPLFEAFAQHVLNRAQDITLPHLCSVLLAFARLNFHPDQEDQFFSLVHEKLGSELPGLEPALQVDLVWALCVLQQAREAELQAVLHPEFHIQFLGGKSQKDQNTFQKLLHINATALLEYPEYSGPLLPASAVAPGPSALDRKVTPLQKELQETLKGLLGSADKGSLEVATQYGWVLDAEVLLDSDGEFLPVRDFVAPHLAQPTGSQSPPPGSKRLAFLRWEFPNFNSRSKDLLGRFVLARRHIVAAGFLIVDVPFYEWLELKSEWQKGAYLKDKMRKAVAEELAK
UniProt Q92834: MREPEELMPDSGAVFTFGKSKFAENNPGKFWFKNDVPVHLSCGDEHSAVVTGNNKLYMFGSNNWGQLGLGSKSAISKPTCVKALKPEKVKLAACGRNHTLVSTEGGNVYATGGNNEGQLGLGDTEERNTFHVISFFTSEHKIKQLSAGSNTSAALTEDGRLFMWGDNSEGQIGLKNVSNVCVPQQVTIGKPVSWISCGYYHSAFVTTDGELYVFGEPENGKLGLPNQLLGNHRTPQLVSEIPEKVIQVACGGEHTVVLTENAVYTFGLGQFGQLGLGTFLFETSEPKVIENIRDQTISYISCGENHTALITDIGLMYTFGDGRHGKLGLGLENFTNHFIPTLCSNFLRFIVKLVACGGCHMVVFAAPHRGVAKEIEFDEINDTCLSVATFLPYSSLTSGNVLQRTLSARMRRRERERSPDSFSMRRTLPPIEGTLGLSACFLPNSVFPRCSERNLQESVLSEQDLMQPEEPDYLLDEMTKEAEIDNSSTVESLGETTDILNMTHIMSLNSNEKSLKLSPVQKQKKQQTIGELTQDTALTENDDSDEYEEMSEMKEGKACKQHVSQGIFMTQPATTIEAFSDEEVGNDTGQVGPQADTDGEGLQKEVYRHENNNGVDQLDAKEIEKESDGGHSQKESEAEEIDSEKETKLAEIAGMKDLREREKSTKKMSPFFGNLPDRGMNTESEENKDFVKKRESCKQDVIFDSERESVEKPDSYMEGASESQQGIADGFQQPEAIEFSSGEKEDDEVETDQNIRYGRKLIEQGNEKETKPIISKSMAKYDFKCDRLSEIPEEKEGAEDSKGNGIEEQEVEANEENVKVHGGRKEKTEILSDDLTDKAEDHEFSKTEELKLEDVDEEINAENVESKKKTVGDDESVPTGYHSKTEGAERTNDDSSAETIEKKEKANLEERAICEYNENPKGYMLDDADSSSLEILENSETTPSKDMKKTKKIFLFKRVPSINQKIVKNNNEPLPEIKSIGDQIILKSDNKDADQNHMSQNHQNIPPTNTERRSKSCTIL
UniProt Q92626: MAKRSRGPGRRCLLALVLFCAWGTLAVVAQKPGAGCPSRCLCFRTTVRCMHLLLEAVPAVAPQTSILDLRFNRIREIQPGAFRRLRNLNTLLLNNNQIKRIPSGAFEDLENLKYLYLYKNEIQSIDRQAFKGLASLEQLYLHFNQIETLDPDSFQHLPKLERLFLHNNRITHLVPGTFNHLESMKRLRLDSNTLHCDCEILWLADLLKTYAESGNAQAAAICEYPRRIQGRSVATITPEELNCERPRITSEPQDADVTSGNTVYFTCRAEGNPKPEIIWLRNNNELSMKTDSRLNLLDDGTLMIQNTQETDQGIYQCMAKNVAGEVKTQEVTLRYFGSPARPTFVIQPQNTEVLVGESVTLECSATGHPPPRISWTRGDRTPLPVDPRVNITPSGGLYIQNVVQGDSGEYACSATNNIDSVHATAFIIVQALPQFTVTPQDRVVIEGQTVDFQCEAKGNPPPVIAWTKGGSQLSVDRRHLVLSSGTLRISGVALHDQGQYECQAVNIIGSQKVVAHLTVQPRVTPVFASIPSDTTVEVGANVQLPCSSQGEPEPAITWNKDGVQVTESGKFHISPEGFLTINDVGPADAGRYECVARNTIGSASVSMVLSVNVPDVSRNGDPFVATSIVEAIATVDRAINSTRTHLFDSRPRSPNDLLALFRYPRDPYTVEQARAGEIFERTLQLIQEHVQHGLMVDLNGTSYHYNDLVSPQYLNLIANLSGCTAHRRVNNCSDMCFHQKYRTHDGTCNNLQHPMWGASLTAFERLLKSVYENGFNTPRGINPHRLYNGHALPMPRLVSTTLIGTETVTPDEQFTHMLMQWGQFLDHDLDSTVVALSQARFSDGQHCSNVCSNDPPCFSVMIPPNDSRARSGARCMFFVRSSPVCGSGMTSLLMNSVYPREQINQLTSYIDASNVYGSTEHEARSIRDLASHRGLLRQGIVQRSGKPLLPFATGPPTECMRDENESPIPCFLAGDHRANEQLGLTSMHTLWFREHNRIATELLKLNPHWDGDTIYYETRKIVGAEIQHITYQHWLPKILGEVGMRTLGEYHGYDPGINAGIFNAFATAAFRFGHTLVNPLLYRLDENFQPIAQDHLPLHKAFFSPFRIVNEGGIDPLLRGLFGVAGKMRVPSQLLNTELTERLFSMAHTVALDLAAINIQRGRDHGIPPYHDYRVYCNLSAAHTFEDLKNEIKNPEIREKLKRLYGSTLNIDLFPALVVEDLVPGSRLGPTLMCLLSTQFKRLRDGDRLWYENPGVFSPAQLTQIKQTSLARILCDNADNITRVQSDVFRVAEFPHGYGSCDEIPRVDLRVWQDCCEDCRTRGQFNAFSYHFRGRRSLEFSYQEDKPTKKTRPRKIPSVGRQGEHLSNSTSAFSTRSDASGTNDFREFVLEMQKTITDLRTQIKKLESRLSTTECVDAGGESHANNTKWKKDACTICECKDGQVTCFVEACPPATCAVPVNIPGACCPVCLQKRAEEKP
UniProt Q8WU90: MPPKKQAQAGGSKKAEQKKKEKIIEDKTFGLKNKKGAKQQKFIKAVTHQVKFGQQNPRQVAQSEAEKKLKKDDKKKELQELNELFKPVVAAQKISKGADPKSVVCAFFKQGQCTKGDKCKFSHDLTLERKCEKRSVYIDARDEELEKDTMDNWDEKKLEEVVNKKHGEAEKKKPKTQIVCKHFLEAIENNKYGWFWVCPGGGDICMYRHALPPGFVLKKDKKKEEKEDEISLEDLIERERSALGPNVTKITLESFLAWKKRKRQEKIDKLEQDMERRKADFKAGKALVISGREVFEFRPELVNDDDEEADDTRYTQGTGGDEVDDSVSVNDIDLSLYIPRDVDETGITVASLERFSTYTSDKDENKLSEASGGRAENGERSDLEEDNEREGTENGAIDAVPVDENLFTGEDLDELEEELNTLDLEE
UniProt Q96AT9: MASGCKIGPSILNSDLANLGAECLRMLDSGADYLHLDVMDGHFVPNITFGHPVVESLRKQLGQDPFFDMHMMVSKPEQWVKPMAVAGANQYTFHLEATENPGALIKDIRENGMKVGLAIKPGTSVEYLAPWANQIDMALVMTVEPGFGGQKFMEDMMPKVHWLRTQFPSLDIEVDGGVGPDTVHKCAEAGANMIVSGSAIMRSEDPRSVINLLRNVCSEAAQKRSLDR
UniProt Q8WVZ9: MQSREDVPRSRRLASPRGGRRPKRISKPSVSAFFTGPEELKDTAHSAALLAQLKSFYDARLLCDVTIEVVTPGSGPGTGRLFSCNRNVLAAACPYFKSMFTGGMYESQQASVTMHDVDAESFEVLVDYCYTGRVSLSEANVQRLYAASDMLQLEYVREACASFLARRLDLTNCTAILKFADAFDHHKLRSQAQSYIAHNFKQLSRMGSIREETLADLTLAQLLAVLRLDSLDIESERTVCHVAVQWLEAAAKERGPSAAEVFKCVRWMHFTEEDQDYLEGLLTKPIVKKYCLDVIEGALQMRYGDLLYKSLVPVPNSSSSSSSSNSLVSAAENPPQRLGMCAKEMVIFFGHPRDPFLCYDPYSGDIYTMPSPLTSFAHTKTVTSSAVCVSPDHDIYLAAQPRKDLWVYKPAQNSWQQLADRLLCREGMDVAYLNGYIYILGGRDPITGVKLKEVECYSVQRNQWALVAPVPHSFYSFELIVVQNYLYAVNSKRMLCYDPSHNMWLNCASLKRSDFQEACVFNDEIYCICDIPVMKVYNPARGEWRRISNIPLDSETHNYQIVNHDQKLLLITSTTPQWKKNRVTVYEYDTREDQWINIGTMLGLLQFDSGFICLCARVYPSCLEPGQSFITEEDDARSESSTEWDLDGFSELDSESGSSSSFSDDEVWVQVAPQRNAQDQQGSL
UniProt Q969F9: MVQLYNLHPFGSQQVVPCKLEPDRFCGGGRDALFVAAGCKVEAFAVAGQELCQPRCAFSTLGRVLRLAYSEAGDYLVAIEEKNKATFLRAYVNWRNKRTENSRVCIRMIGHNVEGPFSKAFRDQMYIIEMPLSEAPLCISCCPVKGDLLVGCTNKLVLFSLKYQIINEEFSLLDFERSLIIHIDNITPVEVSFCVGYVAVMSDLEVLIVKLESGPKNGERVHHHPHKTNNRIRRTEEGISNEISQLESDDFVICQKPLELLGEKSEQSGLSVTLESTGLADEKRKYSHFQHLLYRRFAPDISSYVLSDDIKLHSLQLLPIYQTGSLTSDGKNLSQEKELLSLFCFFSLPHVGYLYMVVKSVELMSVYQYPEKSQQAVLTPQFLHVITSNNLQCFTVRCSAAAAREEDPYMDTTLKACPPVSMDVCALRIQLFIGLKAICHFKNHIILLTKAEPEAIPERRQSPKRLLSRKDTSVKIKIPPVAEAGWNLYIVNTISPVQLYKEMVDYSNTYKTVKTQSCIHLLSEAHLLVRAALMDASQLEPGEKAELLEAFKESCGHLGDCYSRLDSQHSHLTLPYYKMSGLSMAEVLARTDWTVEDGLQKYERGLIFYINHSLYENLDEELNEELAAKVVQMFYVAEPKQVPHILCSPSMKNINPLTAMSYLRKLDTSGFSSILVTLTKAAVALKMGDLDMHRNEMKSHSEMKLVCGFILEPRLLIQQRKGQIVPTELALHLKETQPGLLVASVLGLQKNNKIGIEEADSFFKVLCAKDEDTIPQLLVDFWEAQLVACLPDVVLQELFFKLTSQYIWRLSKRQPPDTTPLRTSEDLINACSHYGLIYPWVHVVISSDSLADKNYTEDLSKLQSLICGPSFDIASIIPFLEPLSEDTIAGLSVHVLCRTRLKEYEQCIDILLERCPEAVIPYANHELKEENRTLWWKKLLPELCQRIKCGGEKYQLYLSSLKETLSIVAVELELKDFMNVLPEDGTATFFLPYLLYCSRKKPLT

Compound: Nc1ncnc2c1ncn2[C@@H]1O[C@H](COP(=O)(O)OP(=O)(O)OP(=O)(O)O)[C@@H](O)[C@H]1O [adenosine triphosphate]
Test: NP40-soluble protein abundance relative to vehicle (solubility fold change) (ratio); higher = more soluble protein in presence of ATP
In short: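 Jurkat crude lysate prepared with a Dounce homogeniser was treated at eight concentrations spanning 0.1 to 10 mM, 10 min at room temperature then 3 min at 37 °C. Solubilisation with 0.8% NP40 and benzonase and ultracentrifugation preceded TMT labelling of the supernatant for LC-MS/MS. Fold change against the detergent-processed vehicle was determined per replicate from vsn-normalised intensities, across three independent experiments.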

Target	NP40-soluble protein abundance (concentration: 0.1mM)	NP40-soluble protein abundance (concentration: 0.5mM)	NP40-soluble protein abundance (concentration: 1mM)	NP40-soluble protein abundance (concentration: 2mM)	NP40-soluble protein abundance (concentration: 4mM)	NP40-soluble protein abundance (concentration: 6mM)	NP40-soluble protein abundance (concentration: 8mM)	NP40-soluble protein abundance (concentration: 10mM)
GTF2H4 (UniProt Q92759)	1.03 ± 0.057	1.19 ± 0.11	1.08 ± 0.072	1.04 ± 0.035	1.09 ± 0.059	0.975 ± 0.13	1.16 ± 0.069	1.12 ± 0.036
DNAJC9 (UniProt Q8WXX5)	0.962 ± 0.01	0.977 ± 0.018	1.04 ± 0.024	1.13 ± 0.012	1.34 ± 0.04	1.55 ± 0.057	1.73 ± 0.12	1.76 ± 0.1
NUDCD2 (UniProt Q8WVJ2)	0.993 ± 0.033	0.961 ± 0.051	–	–	–	–	–	–
UniProt Q8TCD5 and related entries	1.02 ± 0.033	0.981 ± 0.081	1 ± 0.021	1.02 ± 0.04	1.01 ± 0.057	0.942 ± 0.15	1.01 ± 0.11	0.954 ± 0.091
NTAN1 (UniProt Q96AB6)	1.09 ± 0.014	1.09 ± 0.033	–	–	–	–	–	–
PIEZO1 (UniProt Q92508)	1.02 ± 0.16	0.995 ± 0.059	1.1 ± 0.12	1.09 ± 0.13	1.14 ± 0.24	1.14 ± 0.12	1.09 ± 0.12	1.09 ± 0.012
UniProt Q96B36 and related entries	0.856 ± 0.11	0.773 ± 0.11	0.861 ± 0.098	0.826 ± 0.085	0.765 ± 0.029	0.826 ± 0.091	0.747 ± 0.071	0.693 ± 0.12
TBRG4 (UniProt Q969Z0)	0.995 ± 0.045	1.02 ± 0.048	0.981 ± 0.047	0.957 ± 0.015	0.928 ± 0.026	0.962 ± 0.069	0.955 ± 0.022	0.948 ± 0.015
PNPLA2 (UniProt Q96AD5)	1.1 ± 0.11	1.03 ± 0.034	1.04 ± 0.047	1 ± 0.069	1.02 ± 0.064	0.927 ± 0.12	0.994 ± 0.062	1.06 ± 0.1
RPGR (UniProt Q92834)	1.04 ± 0.045	1.08 ± 0.07	1.03 ± 0.099	1.08 ± 0.039	1.05 ± 0.036	1.07 ± 0.067	1.067 ± 0.0066	1.05 ± 0.013
UniProt Q969U7 and related entries	1.03 ± 0.067	1.04 ± 0.04	1.02 ± 0.072	1.01 ± 0.012	0.965 ± 0.055	0.983 ± 0.029	0.978 ± 0.072	0.986 ± 0.081
PXDN (UniProt Q92626)	1.01 ± 0.038	1.01 ± 0.077	1.06 ± 0.1	1.03 ± 0.067	1.09 ± 0.06	1.05 ± 0.049	1.04 ± 0.074	1.06 ± 0.1
UniProt Q92609 and related entries	1.03 ± 0.026	1.03 ± 0.033	–	–	–	–	–	–
UniProt Q92833 and related entries	1.11 ± 0.16	1.09 ± 0.22	1.33 ± 0.27	1.32 ± 0.34	1.48 ± 0.51	1.49 ± 0.48	1.59 ± 0.63	1.76 ± 0.69
UniProt Q96AQ6 and related entries	0.997 ± 0.011	0.975 ± 0.033	0.939 ± 0.053	0.927 ± 0.024	0.924 ± 0.028	0.953 ± 0.017	0.895 ± 0.01	0.9264 ± 0.0053
UniProt Q8WUI4 and related entries	1.02 ± 0.034	1.05 ± 0.073	–	–	–	–	–	–
MRPS31 (UniProt Q92665)	0.933 ± 0.094	0.966 ± 0.075	0.994 ± 0.058	0.93 ± 0.066	0.871 ± 0.062	0.923 ± 0.14	0.865 ± 0.088	0.857 ± 0.073
UniProt Q8TED0 and related entries	1.08 ± 0.055	1.13 ± 0.063	1.18 ± 0.18	1.22 ± 0.11	1.32 ± 0.18	1.43 ± 0.28	1.5 ± 0.24	1.77 ± 0.41
ZC3H15 (UniProt Q8WU90)	1 ± 0.031	1 ± 0.056	–	–	–	–	–	–
MUL1 (UniProt Q969V5)	0.992 ± 0.02	1.01 ± 0.055	–	–	–	–	–	–
UniProt Q96AT9 and related entries	1.03 ± 0.074	1 ± 0.068	1.06 ± 0.092	1.07 ± 0.047	1.06 ± 0.075	1.05 ± 0.073	0.991 ± 0.064	0.993 ± 0.048
KBTBD7 (UniProt Q8WVZ9)	1.06 ± 0.059	1.07 ± 0.025	–	–	–	–	–	–
UniProt Q969F9 and related entries	0.992 ± 0.066	0.972 ± 0.036	1.07 ± 0.16	1.11 ± 0.22	1.05 ± 0.26	1.05 ± 0.15	0.905 ± 0.044	0.962 ± 0.11
UniProt Q92804 and related entries	0.946 ± 0.11	0.969 ± 0.1	1.05 ± 0.14	1.07 ± 0.15	1.24 ± 0.2	1.5 ± 0.29	1.59 ± 0.21	2.05 ± 0.3
UniProt Q8WU79 and related entries	0.923 ± 0.041	0.946 ± 0.053	0.891 ± 0.067	0.924 ± 0.024	0.869 ± 0.011	0.975 ± 0.047	0.839 ± 0.017	0.872 ± 0.032
UniProt Q92674	0.915 ± 0.17	1.02 ± 0.17	–	–	–	–	–	–
UniProt Q8TDY2 and related entries	1.03 ± 0.039	1.05 ± 0.082	1.04 ± 0.056	1.02 ± 0.044	1.03 ± 0.038	1.04 ± 0.042	1.01 ± 0.041	1.04 ± 0.038
UniProt Q8WWW0-2	0.972 ± 0.016	0.952 ± 0.056	–	–	–	–	–	–
UniProt Q92576 and related entries	1 ± 0.03	1.04 ± 0.055	1.05 ± 0.052	1.07 ± 0.056	1.12 ± 0.051	1.22 ± 0.11	1.2 ± 0.048	1.24 ± 0.073

Quoted at random: two entries already listed
Target	NP40-soluble protein abundance (concentration: 0.1mM)	NP40-soluble protein abundance (concentration: 0.5mM)	NP40-soluble protein abundance (concentration: 1mM)	NP40-soluble protein abundance (concentration: 2mM)	NP40-soluble protein abundance (concentration: 4mM)	NP40-soluble protein abundance (concentration: 6mM)	NP40-soluble protein abundance (concentration: 8mM)	NP40-soluble protein abundance (concentration: 10mM)
ZC3H15 (UniProt Q8WU90)	1 ± 0.031	1 ± 0.056	–	–	–	–	–	–
UniProt Q8WWW0-2	0.972 ± 0.016	0.952 ± 0.056	–	–	–	–	–	–
